Measurements reported in PubChem BioAssay AID1159584 (Peter MacCallum Cancer Centre, 2016).
Shown is one part, drawn at random, of about 18,000 reagents. Not all columns of the deposit are shown. Not given: the amount of reagent, the time to read-out.

Aim: 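Knock-downs that harm CDH1-null cells more than parental MCF10A cells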 (primary screen)
System: human MCF10A breast epithelial cells, parental and CDH1-null
Reagent: siRNA against human genes
Measurement: 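Cell viability by CellTiter-Glo ATP luminescence, each line scaled to the mean of mock wells across plates, then CDH1-null over parental ratio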
Scale: CDH1-null / parental viability ratio: higher = CDH1-null cells survive relatively better than parental

RASSF9 gave CDH1-null / parental viability ratio 0.72.
HEATR1 gave CDH1-null / parental viability ratio 1.06.
CCL4L1 gave CDH1-null / parental viability ratio 0.83.
AZU1 gave CDH1-null / parental viability ratio 1.78.
Against LNPK, the entry reads CDH1-null / parental viability ratio 1.05.
IGSF21 scored CDH1-null / parental viability ratio 1.22.
For CDK11A, the entry reads CDH1-null / parental viability ratio 1.03.
Depletion of TGFB3 resulted in: CDH1-null / parental viability ratio 1.16.
After knock-down of TSR1, the record shows CDH1-null / parental viability ratio 1.15.
For LAMB4, the entry reads CDH1-null / parental viability ratio 1.18.
Knock-down of C5 resulted in: CDH1-null / parental viability ratio 0.96.
TCP10L scored CDH1-null / parental viability ratio 0.89.
Silencing of LRGUK resulted in: CDH1-null / parental viability ratio 0.76.
FABP1 gave CDH1-null / parental viability ratio 0.92.
With knock-down of LRRC41, the screen gave CDH1-null / parental viability ratio 0.94.
Against ZNF321P, the entry reads CDH1-null / parental viability ratio 1.08.
COQ2 gave CDH1-null / parental viability ratio 1.1.
ZNF653 scored CDH1-null / parental viability ratio 0.81.
Knock-down of RNF2 gave: CDH1-null / parental viability ratio 0.97.
Silencing of H2BC4 gave: CDH1-null / parental viability ratio 1.19.
Against NKAPD1, the entry reads CDH1-null / parental viability ratio 1.14.
With knock-down of USH1G, the record shows CDH1-null / parental viability ratio 0.86.
After knock-down of ENTHD1, the screen gave CDH1-null / parental viability ratio 1.01.
ASCL2 scored CDH1-null / parental viability ratio 1.16.
Depletion of CPNE2 gave: CDH1-null / parental viability ratio 1.15.
For CETN2, the values are CDH1-null / parental viability ratio 1.34.
Depletion of CATSPERE came out at: CDH1-null / parental viability ratio 1.02.
For PIGM the deposit lists CDH1-null / parental viability ratio 1.03.
Knock-down of ZNF423 resulted in: CDH1-null / parental viability ratio 1.14.
For ACVR2B, the entry reads CDH1-null / parental viability ratio 0.96.
After knock-down of HIBCH, the record shows CDH1-null / parental viability ratio 0.98.
LAMC3 showed CDH1-null / parental viability ratio 1.12.
With knock-down of SORCS1 the results were CDH1-null / parental viability ratio 0.82.
With knock-down of TRIM62 the results were CDH1-null / parental viability ratio 0.98.
ZNF37A showed CDH1-null / parental viability ratio 0.88.

Targets listed so far whose gene name starts with A or a:
AZU1 → CDH1-null / parental viability ratio = 1.78
ASCL2 → CDH1-null / parental viability ratio = 1.16
ACVR2B → CDH1-null / parental viability ratio = 0.96
